Results taken from US12729225B2, “Non-canonical SWI/SNF complex and uses thereof” (Dana-Farber Cancer Institute, Inc., priority 2018, dated 2026).

System: mSWI/SNF complexes
Test: mSWI/SNF complex purification with HA-tagged baits and mass spectrometry (peptide counts)
Parameters: species or system human
Settings: 293_HA-BRD7 bait purification, mass spectrometry; for Total: total peptide count per identified protein; for Unique: unique peptide count per identified protein

B1: RAB11FIP5 (protein, UniProt Q9BXF6 1-653, looked up)
Rab11 family-interacting …: MALVRGAEPAAGPSRWLPTHVQVTVLRARGLRGKSSGAGSTSDAYTVIQVGREKYSTSVVEKTHGCPEWREECSFELPPGALDGLLRAQEADAGPAPWAASSAAACELVLTTMHRSLIGVDKFLGQATVALDEVFGAGRAQHTQWYKLHSKPGKKEKERGEIEVTIQFTRNNLSASMFDLSMKDKPRSPFSKIRDKMKGKKKYDLESASAILPSSAIEDPDLGSLGKMGKAKGFFLRNKLRKSSLTQSNTSLGSDSTLSSASGSLAYQGPGAELLTRSPSRSSWLSTEGGRDSAQSPKLFTHKRTYSDEANQMRVAPPRALLDLQGHLDAASRSSLCVNGSHIYNEEPQGPVRHRSSISGSLPSSGSLQAVSSRFSEEGPRSTDDTWPRGSRSNSSSEAVLGQEELSAQAKVLAPGASHPGEEEGARLPEGKPVQVATPIVASSEAVAEKEGARKEERKPRMGLFHHHHQGLSRSELGRRSSLGEKGGPILGASPHHSSSGEEKAKSSWFGLREAKDPTQKPSPHPVKPLSAAPVEGSPDRKQSRSSLSIALSSGLEKLKTVTSGSIQPVTQAPQAGQMVDTKRLKDSAVLDQSAKYYHLTHDELISLLLQRERELSQRDEHVQELESYIDRLLVRIMETSPTLLQIPPGPPK
- Total: 1
- Unique: 1

B2: NPEPPS (protein, UniProt P55786 1-919, looked up)
Puromycin-sensitive …: MWLAAAAPSLARRLLFLGPPPPPLLLLVFSRSSRRRLHSLGLAAMPEKRPFERLPADVSPINYSLCLKPDLLDFTFEGKLEAAAQVRQATNQIVMNCADIDIITASYAPEGDEEIHATGFNYQNEDEKVTLSFPSTLQTGTGTLKIDFVGELNDKMKGFYRSKYTTPSGEVRYAAVTQFEATDARRAFPCWDEPAIKATFDISLVVPKDRVALSNMNVIDRKPYPDDENLVEVKFARTPVMSTYLVAFVVGEYDFVETRSKDGVCVRVYTPVGKAEQGKFALEVAAKTLPFYKDYFNVPYPLPKIDLIAIADFAAGAMENWGLVTYRETALLIDPKNSCSSSRQWVALVVGHELAHQWFGNLVTMEWWTHLWLNEGFASWIEYLCVDHCFPEYDIWTQFVSADYTRAQELDALDNSHPIEVSVGHPSEVDEIFDAISYSKGASVIRMLHDYIGDKDFKKGMNMYLTKFQQKNAATEDLWESLENASGKPIAAVMNTWTKQMGFPLIYVEAEQVEDDRLLRLSQKKFCAGGSYVGEDCPQWMVPITISTSEDPNQAKLKILMDKPEMNVVLKNVKPDQWVKLNLGTVGFYRTQYSSAMLESLLPGIRDLSLPPVDRLGLQNDLFSLARAGIISTVEVLKVMEAFVNEPNYTVWSDLSCNLGILSTLLSHTDFYEEIQEFVKDVFSPIGERLGWDPKPGEGHLDALLRGLVLGKLGKAGHKATLEEARRRFKDHVEGKQILSADLRSPVYLTVLKHGDGTTLDIMLKLHKQADMQEEKNRIERVLGATLLPDLIQKVLTFALSEEVRPQDTVSVIGGVAGGSKHGRKAAWKFIKDNWEELYNRYQGGFLISRLIKLSVEGFAVDKMAGEVKAFFESHPAPSAERTIQQCCENILLNAAWLKRDAESIHQYLLQRKASPPTV
- Total: 1
- Unique: 1

B3: SSBP1 (protein, UniProt Q04837 17-148, looked up)
Single-stranded DNA-binding …: ESETTTSLVLERSLNRVHLLGRVGQDPVLRQVEGKNPVTIFSLATNEMWRSGDSEVYQLGDVSQKTTWHRISVFRPGLRDVAYQYVKKGSRIYLEGKIDYGEYMDKNNVRRQATTIIADNIIFLSDQTKEKE
- Total: 1
- Unique: 1

B4: AASS (protein, UniProt Q9UDR5 28-926, looked up)
Alpha-aminoadipic …: VRREDVNAWERRAPLAPKHIKGITNLGYKVLIQPSNRRAIHDKDYVKAGGILQEDISEACLILGVKRPPEEKLMSRKTYAFFSHTIKAQEANMGLLDEILKQEIRLIDYEKMVDHRGVRVVAFGQWAGVAGMINILHGMGLRLLALGHHTPFMHIGMAHNYRNSSQAVQAVRDAGYEISLGLMPKSIGPLTFVFTGTGNVSKGAQAIFNELPCEYVEPHELKEVSQTGDLRKVYGTVLSRHHHLVRKTDAVYDPAEYDKHPERYISRFNTDIAPYTTCLINGIYWEQNTPRLLTRQDAQSLLAPGKFSPAGVEGCPALPHKLVAICDISADTGGSIEFMTECTTIEHPFCMYDADQHIIHDSVEGSGILMCSIDNLPAQLPIEATECFGDMLYPYVEEMILSDATQPLESQNFSPVVRDAVITSNGTLPDKYKYIQTLRESRERAQSLSMGTRRKVLVLGSGYISEPVLEYLSRDGNIEITVGSDMKNQIEQLGKKYNINPVSMDICKQEEKLGFLVAKQDLVISLLPYVLHPLVAKACITNKVNMVTASYITPALKELEKSVEDAGITIIGELGLDPGLDHMLAMETIDKAKEVGATIESYISYCGGLPAPEHSNNPLRYKFSWSPVGVLMNVMQSATYLLDGKVVNVAGGISFLDAVTSMDFFPGLNLEGYPNRDSTKYAEIYGISSAHTLLRGTLRYKGYMKALNGFVKLGLINREALPAFRPEANPLTWKQLLCDLVGISPSSEHDVLKEAVLKKLGGDNTQLEAAEWLGLLGDEQVPQAESILDALSKHLVMKLSYGPEEKDMIVMRDSFGIRHPSGHLEHKTIDLVAYGDINGFSAMAKTVGLPTAMAAKMLLDGEIGAKGLMGPFSKEIYGPILERIKAEGIIYTTQSTIKP
- Total: 1
- Unique: 1

B5: AAAS (protein, UniProt Q9NRG9 2-546, looked up)
Aladin: CSLGLFPPPPPRGQVTLYEHNNELVTGSSYESPPPDFRGQWINLPVLQLTKDPLKTPGRLDHGTRTAFIHHREQVWKRCINIWRDVGLFGVLNEIANSEEEVFEWVKTASGWALALCRWASSLHGSLFPHLSLRSEDLIAEFAQVTNWSSCCLRVFAWHPHTNKFAVALLDDSVRVYNASSTIVPSLKHRLQRNVASLAWKPLSASVLAVACQSCILIWTLDPTSLSTRPSSGCAQVLSHPGHTPVTSLAWAPSGGRLLSASPVDAAIRVWDVSTETCVPLPWFRGGGVTNLLWSPDGSKILATTPSAVFRVWEAQMWTCERWPTLSGRCQTGCWSPDGSRLLFTVLGEPLIYSLSFPERCGEGKGCVGGAKSATIVADLSETTIQTPDGEERLGGEAHSMVWDPSGERLAVLMKGKPRVQDGKPVILLFRTRNSPVFELLPCGIIQGEPGAQPQLITFHPSFNKGALLSVGWSTGRIAHIPLYFVNAQFPRFSPVLGRAQEPPAGGGGSIHDLPLFTETSPTSAPWDPLPGPPPVLPHSPHSHL
- Total: 1
- Unique: 1

B6: EXD2 (protein, UniProt Q9NVH0 1-621, looked up)
Exonuclease 3'-5' …: MSRQNLVALTVTTLLGVAVGGFVLWKGIQRRRRSKTSPVTQQPQQKVLGSRELPPPEDDQLHSSAPRSSWKERILKAKVVTVSQEAEWDQIEPLLRSELEDFPVLGIDCEWVNLEGKASPLSLLQMASPSGLCVLVRLPKLICGGKTLPRTLLDILADGTILKVGVGCSEDASKLLQDYGLVVRGCLDLRYLAMRQRNNLLCNGLSLKSLAETVLNFPLDKSLLLRCSNWDAETLTEDQVIYAARDAQISVALFLHLLGYPFSRNSPGEKNDDHSSWRKVLEKCQGVVDIPFRSKGMSRLGEEVNGEATESQQKPRNKKSKMDGMVPGNHQGRDPRKHKRKPLGVGYSARKSPLYDNCFLHAPDGQPLCTCDRRKAQWYLDKGIGELVSEEPFVVKLRFEPAGRPESPGDYYLMVKENLCVVCGKRDSYIRKNVIPHEYRKHFPIEMKDHNSHDVLLLCTSCHAISNYYDNHLKQQLAKEFQAPIGSEEGLRLLEDPERRQVRSGARALLNAESLPTQRKEELLQALREFYNTDVVTEEMLQEAASLETRISNENYVPHGLKVVQCHSQGGLRSLMQLESRWRQHFLDSMQPKHLPQQWSVDHNHQKLLRKFGEDLPIQLS
- Total: 1
- Unique: 1

B7: RPS10P5 (protein, UniProt Q9NQ39 1-176, looked up)
Putative ribosomal protein …: MLMPKKNRIAIHELLFKEGVMVAKKDVHMPKHPELADKNVPNLHVMKAMQSLKSRGCVKEQFAWRHFYWYLTNEGSQYLRDYLHLPPEIVPATLHLPPEIVPATLHRSRPETGRPRPKGLEGKRPARLTRREADRDTYRRCSVPPGADKKAEAGAGSATEFQFRGRCGRGRGQPPQ
- Total: 1
- Unique: 1

B8: SARNP (protein, UniProt P82979 2-210, looked up)
SAP domain-containing …: ATETVELHKLKLAELKQECLARGLETKGIKQDLIHRLQAYLEEHAEEEANEEDVLGDETEEEETKPIELPVKEEEPPEKTVDVAAEKKVVKITSEIPQTERMQKRAERFNVPVSLESKKAARAARFGISSVPTKGLSSDNKPMVNLDKLKERAQRFGLNVSSISRKSEDDEKLKKRKERFGIVTSSAGTGTTEDTEAKKRKRAERFGIA
- Total: 1
- Unique: 1

B9: SLC25A40 (protein, UniProt Q8TBP6 1-338, looked up)
Mitochondrial glutathione …: MDPETRGQEIIKVTPLQQMLASCTGAILTSVIVTPLDVVKIRLQAQNNPLPKGKCFVYSNGLMDHLCVCEEGGNKLWYKKPGNFQGTLDAFFKIIRNEGIKSLWSGLPPTLVMAVPATVIYFTCYDQLSALLRSKLGENETCIPIVAGIVARFGAVTVISPLELIRTKMQSKKFSYVELHRFVSKKVSEDGWISLWRGWAPTVLRDVPFSAMYWYNYEILKKWLCEKSGLYEPTFMINFTSGALSGSFAAVATLPFDVVKTQKQTQLWTYESHKISMPLHMSTWIIMKNIVAKNGFSGLFSGLIPRLIKIAPACAIMISTYEFGKAFFQKQNVRRQQY
- Total: 1
- Unique: 1

B10: NR2F1 (protein, UniProt P10589 1-423, looked up)
COUP transcription factor 1: MAMVVSSWRDPQDDVAGGNPGGPNPAAQAARGGGGGAGEQQQQAGSGAPHTPQTPGQPGAPATPGTAGDKGQGPPGSGQSQQHIECVVCGDKSSGKHYGQFTCEGCKSFFKRSVRRNLTYTCRANRNCPIDQHHRNQCQYCRLKKCLKVGMRREAVQRGRMPPTQPNPGQYALTNGDPLNGHCYLSGYISLLLRAEPYPTSRYGSQCMQPNNIMGIENICELAARLLFSAVEWARNIPFFPDLQITDQVSLLRLTWSELFVLNAAQCSMPLHVAPLLAAAGLHASPMSADRVVAFMDHIRIFQEQVEKLKALHVDSAEYSCLKAIVLFTSDACGLSDAAHIESLQEKSQCALEEYVRSQYPNQPSRFGKLLLRLPSLRTVSSSVIEQLFFVRLVGKTPIETLIRDMLLSGSSFNWPYMSIQCS
- Total: 1
- Unique: 1

B11: PTRH2 (protein, UniProt Q9Y3E5 1-179, looked up)
Peptidyl-tRNA hydrolase 2, …: MPSKSLVMEYLAHPSTLGLAVGVACGMCLGWSLRVCFGMLPKSKTSKTHTDTESEASILGDSGEYKMILVVRNDLKMGKGKVAAQCSHAAVSAYKQIQRRNPEMLKQWEYCGQPKVVVKAPDEETLIALLAHAKMLGLTVSLIQDAGRTQIAPGSQTVLGIGPGPADLIDKVTGHLKLY
- Total: 1
- Unique: 1

B12: RNPS1 (protein, UniProt Q15287 1-305, looked up)
RNA-binding protein with …: MDLSGVKKKSLLGVKENNKKSSTRAPSPTKRKDRSDEKSKDRSKDKGATKESSEKDRGRDKTRKRRSASSGSSSTRSRSSSTSSSGSSTSTGSSSGSSSSSASSRSGSSSTSRSSSSSSSSGSPSPSRRRHDNRRRSRSKSKPPKRDEKERKRRSPSPKPTKVHIGRLTRNVTKDHIMEIFSTYGKIKMIDMPVERMHPHLSKGYAYVEFENPDEAEKALKHMDGGQIDGQEITATAVLAPWPRPPPRRFSPPRRMLPPPPMWRRSPPRMRRRSRSPRRRSPVRRRSRSPGRRRHRSRSSSNSSR
- Total: 1
- Unique: 1
